Measurements from patent US20240398823A1, “DUAL INHIBITOR OF HISTONE DEACETYLASE 6 AND HEAT SHOCK PROTEIN 90” (TAIPEI MEDICAL UNIVERSITY, priority 2021, published 2024).
Some results were stated once for a whole list of compounds, not compound by compound.

The chains behind the UniProt entries cited, without tags or fusion partners.
UniProt P08238, whole entry: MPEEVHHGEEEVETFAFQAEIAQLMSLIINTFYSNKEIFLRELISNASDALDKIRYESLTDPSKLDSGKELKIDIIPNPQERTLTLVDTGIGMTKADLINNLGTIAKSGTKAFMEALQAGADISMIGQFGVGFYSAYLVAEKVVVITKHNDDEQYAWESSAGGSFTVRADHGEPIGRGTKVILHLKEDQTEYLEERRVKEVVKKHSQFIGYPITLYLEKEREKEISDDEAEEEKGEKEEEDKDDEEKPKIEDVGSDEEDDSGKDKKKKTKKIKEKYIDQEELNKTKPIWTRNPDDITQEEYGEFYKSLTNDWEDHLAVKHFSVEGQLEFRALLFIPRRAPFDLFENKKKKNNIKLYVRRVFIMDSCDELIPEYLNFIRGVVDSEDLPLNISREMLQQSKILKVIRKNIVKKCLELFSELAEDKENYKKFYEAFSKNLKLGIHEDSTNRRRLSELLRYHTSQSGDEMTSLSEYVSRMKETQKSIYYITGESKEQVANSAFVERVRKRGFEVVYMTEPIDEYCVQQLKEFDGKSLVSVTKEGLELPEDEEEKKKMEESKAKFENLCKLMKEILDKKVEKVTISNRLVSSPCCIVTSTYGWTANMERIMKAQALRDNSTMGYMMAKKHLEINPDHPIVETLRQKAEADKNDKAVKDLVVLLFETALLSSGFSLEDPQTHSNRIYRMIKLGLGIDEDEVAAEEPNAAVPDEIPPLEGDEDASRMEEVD

How the values were obtained:
HSP90α = target: T1, HSP90α (Homo sapiens, UniProt P07900); test: HSP90 inhibition assay, FITC-geldanamycin competition fluorescence polarization, HSP90α; type: binding
T1 construct: Reaction Biology Corporation (ran the assay as a service)

HSP90β = target: T2, HSP90β (Homo sapiens, UniProt P08238); test: HSP90 inhibition assay, FITC-geldanamycin competition fluorescence polarization, HSP90β; type: binding
T2 construct: Reaction Biology Corporation (ran the assay as a service)

| SMILES | ability to inhibit the activity of HSP90α (in words) (HSP90α) | ability to inhibit the activity of HSP90β (in words) (HSP90β) |
| --- | --- | --- |
| CC(C)c1cc(C(=O)N(Cc2ccc(C(=O)NO)cc2)c2ccc(O)cc2)c(O)cc1O [Compound 76, 2,4-Dihydroxy-N-(4-hydroxycarbamoyl-benzyl)-N-(4-hydroxy-phenyl)-5-isopropyl-benzamide] | have the ability to inhibit the activity | have the ability to inhibit the activity |
| COc1ccc(N(Cc2ccc(C(=O)NO)cc2)C(=O)c2cc(C(C)C)c(O)cc2O)cc1 [Compound 75, 2,4-Dihydroxy-N-(4-hydroxycarbamoyl-benzyl)-5-isopropyl-N-(4-methoxy-phenyl)-benzamide] | have the ability to inhibit the activity | have the ability to inhibit the activity |
| CC(C)c1cc(C(=O)N(Cc2ccc(C(=O)NO)cc2)c2ccc(I)cc2)c(O)cc1O [Compound 69, 2,4-dihydroxy-N-(4-(hydroxycarbamoyl)benzyl)-N-(4-iodophenyl)-5-isopropylbenzamide] | have the ability to inhibit the activity | have the ability to inhibit the activity |
| CC(C)c1cc(C(=O)N(Cc2ccc(C(=O)NO)cc2)c2ccc(N3CCCCC3)cc2)c(O)cc1O [Compound 74, 2,4-dihydroxy-N-(4-(hydroxycarbamoyl)benzyl)-5-isopropyl-N-(4-(piperidin-1-yl)phenyl)benzamide] | have the ability to inhibit the activity | have the ability to inhibit the activity |
| CCN(Cc1ccc(C(=O)NO)cc1)C(=O)c1cc(C(C)C)c(O)cc1O [Compound 64, N-ethyl-2,4-dihydroxy-N-(4-(hydroxycarbamoyl)benzyl)-5-isopropylbenzamide] | have the ability to inhibit the activity | have the ability to inhibit the activity |
| CC(C)c1cc(C(=O)N(Cc2ccc(C(=O)NO)cc2)c2ccc(N(C)C)cc2)c(O)cc1O [Compound 72, N-(4-(dimethylamino)phenyl)-2,4-dihydroxy-N-(4-(hydroxycarbamoyl)benzyl)-5-isopropylbenzamide] | have the ability to inhibit the activity | have the ability to inhibit the activity |
| CC(C)c1cc(C(=O)N(Cc2ccc(C(=O)NO)cc2)c2ccc(F)cc2)c(O)cc1O [Compound 67, N-(4-fluorophenyl)-2,4-dihydroxy-N-(4-(hydroxycarbamoyl)benzyl)-5-isopropylbenzamide] | have the ability to inhibit the activity | have the ability to inhibit the activity |
| CC(C)c1cc(C(=O)N(Cc2ccc(C(=O)NO)cc2)c2ccc(Cl)cc2)c(O)cc1O [Compound 68, N-(4-chlorophenyl)-2,4-dihydroxy-N-(4-(hydroxycarbamoyl)benzyl)-5-isopropylbenzamide] | have the ability to inhibit the activity | have the ability to inhibit the activity |
| CC(C)c1cc(C(=O)N(Cc2ccc(C(=O)NO)cc2)c2ccccc2)c(O)cc1O [Compound 66, 2,4-dihydroxy-N-(4-(hydroxycarbamoyl)benzyl)-5-isopropyl-N-phenylbenzamide] | have the ability to inhibit the activity | have the ability to inhibit the activity |
| CCCN(Cc1ccc(C(=O)NO)cc1)C(=O)c1cc(C(C)C)c(O)cc1O [Compound 65, 2,4-dihydroxy-N-(4-(hydroxycarbamoyl)benzyl)-5-isopropyl-N-propylbenzamide] | have the ability to inhibit the activity | have the ability to inhibit the activity |
| CC(C)c1cc(C(=O)N(Cc2ccc(C(=O)NO)cc2)c2ccc3c(c2)OCO3)c(O)cc1O [Compound 70, N-(benzo[d][1,3]dioxol-5-yl)-2,4-dihydroxy-N-(4-(hydroxycarbamoyl)benzyl)-5-isopropylbenzamide] | have the ability to inhibit the activity | have the ability to inhibit the activity |
| CC(C)c1cc(C(=O)N(Cc2ccc(C(=O)NO)cc2)c2ccc(N3CCOCC3)cc2)c(O)cc1O [Compound 71, 2,4-dihydroxy-N-(4-(hydroxycarbamoyl)benzyl)-5-isopropyl-N-(4-morpholinophenyl)benzamide] | have the ability to inhibit the activity | have the ability to inhibit the activity |
| CC(C)c1cc(C(=O)N(C)Cc2ccc(C(=O)NO)cc2)c(O)cc1O [Compound 63, 2,4-dihydroxy-N-(4-(hydroxycarbamoyl)benzyl)-5-isopropyl-N-methylbenzamide] | have the ability to inhibit the activity | have the ability to inhibit the activity |
| CC(C)c1cc(C(=O)N(Cc2ccc(C(=O)NO)cc2)c2ccc(N3CCN(C)CC3)cc2)c(O)cc1O [Compound 73, 2,4-dihydroxy-N-(4-(hydroxycarbamoyl)benzyl)-5-isopropyl-N-(4-(4-methylpiperazin-1-yl)phenyl)benzamide] | have the ability to inhibit the activity | have the ability to inhibit the activity |
